These are yes or no findings as the source states them, for the method shown. Binding seen in cells or lysates may run through a third protein. Some binding calls cover weakened binding; strength is not graded here. Sequences can lack the tags named with a protein.
Columns and labels:
[1] = molecular target: myc-tagged Cdc42(S88D/K94P) double mutant (human) (UniProt P60953); assay: GST pull-down
[2] = molecular target: myc-tagged RhoA (human); assay: GST pull-down, myc-RhoA from HEK293 lysate
[3] = molecular target: myc-tagged Cdc42(S88D/K94P) double mutant (human) (UniProt P60953); assay: GST pull-down, myc-Cdc42 from HEK293 cells

The chains behind the UniProt entries cited, without tags or fusion partners. Where a name states a change or a piece, a line headed by the entry shows the natural chain unless it says otherwise.
UniProt P60953: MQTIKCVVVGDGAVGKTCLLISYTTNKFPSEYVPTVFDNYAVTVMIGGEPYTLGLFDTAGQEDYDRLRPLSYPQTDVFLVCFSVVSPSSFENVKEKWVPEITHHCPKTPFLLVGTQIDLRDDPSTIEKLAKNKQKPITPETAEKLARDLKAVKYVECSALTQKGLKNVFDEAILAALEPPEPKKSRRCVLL

binding [1]: binds
binding [2]: binds
binding [3]: binds
B1: GST-tagged Myo9b RhoGAP domain, wild-type (protein, not shown: a dimerising Fc or GST)
chain: FGVCVDSLTSDKASVPIVLEKLLEHVEMHGLYTEGLYRKSGAANRTRELRQALQTDPAAVKLENFPIHAITGVLKQWLRELPEPLMTFAQYGDFLRAVELPEKQEQLAAIYAVLEHLPEANHNSLERLIFHLVKVALLEDVNRMSPGALAIIFAPCLLRCPDNSDPLTSMKDVLKITTCVEMLIKEQMRKYKVKMEEISQLE

From patent publication US20170114124A1
